{"sequences": {"note": "Chains of the proteins cited; added tags and fusions are not shown. Lines headed by an entry give the natural chain unless they say otherwise; changes in a name come on top.", "UniProt Q9Y6L6": "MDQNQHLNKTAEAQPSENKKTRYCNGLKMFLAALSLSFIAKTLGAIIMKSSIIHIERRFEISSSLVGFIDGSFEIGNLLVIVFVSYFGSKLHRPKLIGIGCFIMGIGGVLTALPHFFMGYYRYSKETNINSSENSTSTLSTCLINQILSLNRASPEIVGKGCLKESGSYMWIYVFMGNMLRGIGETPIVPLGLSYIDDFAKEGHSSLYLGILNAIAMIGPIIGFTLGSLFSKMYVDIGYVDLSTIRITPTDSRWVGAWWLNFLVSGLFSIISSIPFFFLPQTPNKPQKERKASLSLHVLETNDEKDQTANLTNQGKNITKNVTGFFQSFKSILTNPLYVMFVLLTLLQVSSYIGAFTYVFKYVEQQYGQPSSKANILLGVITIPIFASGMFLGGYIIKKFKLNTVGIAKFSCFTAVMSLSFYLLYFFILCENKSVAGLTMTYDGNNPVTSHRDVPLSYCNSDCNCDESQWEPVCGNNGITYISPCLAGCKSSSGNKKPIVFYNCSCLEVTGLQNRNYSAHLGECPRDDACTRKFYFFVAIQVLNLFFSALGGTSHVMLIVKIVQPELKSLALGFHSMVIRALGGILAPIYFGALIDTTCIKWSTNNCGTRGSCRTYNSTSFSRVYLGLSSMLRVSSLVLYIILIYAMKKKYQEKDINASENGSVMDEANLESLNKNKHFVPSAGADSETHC", "UniProt Q9NPD5": "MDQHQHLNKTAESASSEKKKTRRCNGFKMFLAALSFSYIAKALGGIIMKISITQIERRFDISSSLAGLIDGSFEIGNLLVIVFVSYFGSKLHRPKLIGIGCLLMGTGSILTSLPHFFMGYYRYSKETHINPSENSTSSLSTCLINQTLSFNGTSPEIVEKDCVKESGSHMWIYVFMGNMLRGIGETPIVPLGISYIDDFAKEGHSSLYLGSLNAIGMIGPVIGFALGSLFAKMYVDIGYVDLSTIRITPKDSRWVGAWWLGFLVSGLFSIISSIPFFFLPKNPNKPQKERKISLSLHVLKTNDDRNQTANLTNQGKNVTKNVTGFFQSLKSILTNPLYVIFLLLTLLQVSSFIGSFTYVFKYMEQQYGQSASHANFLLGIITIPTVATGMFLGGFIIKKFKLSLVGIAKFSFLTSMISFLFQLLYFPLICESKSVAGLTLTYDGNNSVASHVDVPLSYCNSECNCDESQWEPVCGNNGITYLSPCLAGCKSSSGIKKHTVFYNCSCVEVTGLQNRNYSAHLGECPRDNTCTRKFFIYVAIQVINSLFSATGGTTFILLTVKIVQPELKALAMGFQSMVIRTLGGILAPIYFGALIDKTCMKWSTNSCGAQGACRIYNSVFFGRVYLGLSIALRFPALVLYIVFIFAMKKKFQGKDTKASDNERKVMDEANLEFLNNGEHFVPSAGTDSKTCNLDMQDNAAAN"}, "source": "patent US20240139211A1", "about": "“METHODS AND COMPOSITIONS FOR TREATING AMYOTROPHIC LATERAL SCLEROSIS” (Amylyx Pharmaceuticals, Inc., priority 2022, published 2024)", "settings_in_all_cases": "no inhibitor", "key": {"OAT3": {"target": "T1, OAT3 (Homo sapiens, UniProt Q8TCC7)", "T1 sequence (Q8TCC7 1-542)": "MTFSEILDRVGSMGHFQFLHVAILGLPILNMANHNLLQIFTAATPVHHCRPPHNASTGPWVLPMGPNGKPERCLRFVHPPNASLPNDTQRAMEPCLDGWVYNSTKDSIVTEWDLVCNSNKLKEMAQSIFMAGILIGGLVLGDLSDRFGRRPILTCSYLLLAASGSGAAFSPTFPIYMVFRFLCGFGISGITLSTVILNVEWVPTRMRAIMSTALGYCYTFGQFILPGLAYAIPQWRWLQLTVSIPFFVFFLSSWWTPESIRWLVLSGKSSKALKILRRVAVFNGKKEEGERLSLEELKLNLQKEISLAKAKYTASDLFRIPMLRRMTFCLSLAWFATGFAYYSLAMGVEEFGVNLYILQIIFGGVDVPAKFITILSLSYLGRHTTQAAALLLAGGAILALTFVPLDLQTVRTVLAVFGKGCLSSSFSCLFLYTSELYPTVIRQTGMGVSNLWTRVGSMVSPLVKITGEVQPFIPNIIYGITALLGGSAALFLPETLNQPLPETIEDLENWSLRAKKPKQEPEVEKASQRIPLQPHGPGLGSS", "test": "OAT3 inhibition, furosemide uptake in transfected HEK cells"}, "OATP1B1": {"target": "OATP1B1 (Homo sapiens, UniProt Q9Y6L6)", "test": "OATP1B1 inhibition, atorvastatin uptake in transfected HEK cells"}, "OATP1B3": {"target": "OATP1B3 (Homo sapiens, UniProt Q9NPD5)", "test": "OATP1B3 inhibition, atorvastatin uptake in transfected HEK cells"}}, "note": "Values joined by “and” are separate entries in the source; they are usually repeats but may differ in a detail not shown here. Equal values may be shown once.", "data": [{"smiles": "NS(=O)(=O)c1cc(C(=O)O)c(NCc2ccco2)cc1Cl", "note": "[furosemide]", "values": [{"measurement": "Net Influx Rate of 5 μM Furosemide", "setting": "OAT3; OAT3", "value": 42.5, "unit": "pmol/mg protein/minute"}, {"measurement": "Influx rate ratio (OAT3 over vector control)", "setting": "OAT3", "value": 20.1}, {"measurement": "Influx Rate of 5 μM Furosemide (5 min)", "setting": "OAT3; OAT3-HEK Cells, Average", "value": 44.8, "unit": "pmol/mg protein/minute"}, {"measurement": "Influx Rate of 5 μM Furosemide (5 min)", "setting": "OAT3; OAT3-HEK Cells, replicates", "value": "42.2 pmol/mg protein/minute and 47.3 pmol/mg protein/minute"}, {"measurement": "Influx Rate Ratio of furosemide", "setting": "OAT3; OAT3 over vector control", "value": 20.1}, {"measurement": "Influx Rate of 5 μM Furosemide (5 min)", "setting": "OAT3; Vector Control Cells, Average", "value": 2.23, "unit": "pmol/mg protein/minute"}, {"measurement": "Influx Rate of 5 μM Furosemide (5 min)", "setting": "OAT3; Vector Control Cells, replicates", "value": "2.47 pmol/mg protein/minute and 1.98 pmol/mg protein/minute"}]}, {"smiles": "CC(C)c1c(C(=O)Nc2ccccc2)c(-c2ccccc2)c(-c2ccc(F)cc2)n1CC[C@@H](O)C[C@@H](O)CC(=O)O", "note": "[atorvastatin]", "values": [{"measurement": "Influx rate ratio (OATP1B1 over vector control)", "setting": "OATP1B1", "value": 15.1}, {"measurement": "Influx Rate Ratio of atorvastatin", "setting": "OATP1B1; OATP1B1 over vector control", "value": 15.1}, {"measurement": "Influx rate ratio (OATP1B3 over vector control)", "setting": "OATP1B3", "value": 8.23}, {"measurement": "Influx Rate Ratio of atorvastatin", "setting": "OATP1B3; OATP1B3 over vector control", "value": 8.23}]}]}
